These are yes or no findings as the source states them, for the method shown. Binding seen in cells or lysates may run through a third protein. A yes stands for co-enrichment or nearness to the bait. Other partners may have been found. For some of these results: No binding means not detected with the bait.
B1: Phosphoglycerate kinase 1 (PGK1), P00558 1-417 (enzyme)
chain: MSLSNKLTLDKLDVKGKRVVMRVDFNVPMKNNQITNNQRIKAAVPSIKFCLDNGAKSVVLMSHLGRPDGVPMPDKYSLEPVAVELKSLLGKDVLFLKDCVGPEVEKACANPAAGSVILLENLRFHVEEEGKGKDASGNKVKAEPAKIEAFRASLSKLGDVYVNDAFGTAHRAHSSMVGVNLPQKAGGFLMKKELNYFAKALESPERPFLAILGGAKVADKIQLINNMLDKVNEMIIGGGMAFTFLKVLNNMEIGTSLFDEEGAKIVKDLMSKAEKNGVKITLPVDFVTADKFDENAKTGQATVASGIPAGWMGLDCGPESSKKYAEAVTRAKQIVWNGPVGVFEWEAFARGTKALMDEVVKATSRGCITIIGGGDTATCCAKWNTEDKVSHVSTGGGASLELLEGKVLPGVDALSNI
B2: Malate dehydrogenase (MDH2) (enzyme, UniProt P40926 25-338)
chain: AKVAVLGASGGIGQPLSLLLKNSPLVSRLTLYDIAHTPGVAADLSHIETKAAVKGYLGPEQLPDCLKGCDVVVIPAGVPRKPGMTRDDLFNTNATIVATLTAACAQHCPEAMICVIANPVNSTIPITAEVFKKHGVYNPNKIFGVTTLDIVRANTFVAELKGLDPARVNVPVIGGHAGKTIIPLISQCTPKVDFPQDQLTALTGRIQEAGTEVVKAKAGAGSATLSMAYAGARFVFSLVDAMNGKEGVVECSFVKSQETECTYFSTPLLLGKKGIEKNLGIGKVSSFEEKMISDAIPELKASIKKGEDFVKTLK
B3: transcription factor A (TFAM) (protein, UniProt Q00059 43-246)
chain: SSVLASCPKKPVSSYLRFSKEQLPIFKAQNPDAKTTELIRRIAQRWRELPDSKKKIYQDAYRAEWQVYKEEISRFKEQLTPSQIMSLEKEIMDKHLKRKAMTKKKELTLLGKPKRPRSAYNVYVAERFQEAKGDSPQEKLKTVKENWKNLSDSEKELYIQHAKEDETRYHNEMKSWEEQMIEVGRKDLLRRTIKKQRKYGAEEC
B4: UGP2 (endogenous) (enzyme, UniProt Q16851 1-508)
chain: MSRFVQDLSKAMSQDGASQFQEVIRQELELSVKKELEKILTTASSHEFEHTKKDLDGFRKLFHRFLQEKGPSVDWGKIQRPPEDSIQPYEKIKARGLPDNISSVLNKLVVVKLNGGLGTSMGCKGPKSLIGVRNENTFLDLTVQQIEHLNKTYNTDVPLVLMNSFNTDEDTKKILQKYNHCRVKIYTFNQSRYPRINKESLLPVAKDVSYSGENTEAWYPPGHGDIYASFYNSGLLDTFIGEGKEYIFVSNIDNLGATVDLYILNHLMNPPNGKRCEFVMEVTNKTRADVKGGTLTQYEGKLRLVEIAQVPKAHVDEFKSVSKFKIFNTNNLWISLAAVKRLQEQNAIDMEIIVNAKTLDGGLNVIQLETAVGAAIKSFENSLGINVPRSRFLPVKTTSDLLLVMSNLYSLNAGSLTMSEKREFPTVPLVKLGSSFTKVQDYLRRFESIPDMLELDHLTVSGDVTFGKNVSLKGTVIIIANHGDRIDIPPGAVLENKIVSGNLRILDH
B5: Sorbin and SH3 domain-containing protein 1 (SORBS1) (protein, UniProt Q9BX66 1-1292)
chain: MSSECDGGSKAVMNGLAPGSNGQDKATADPLRARSISAVKIIPVKTVKNASGLVLPTDMDLTKICTGKGAVTLRASSSYRETPSSSPASPQETRQHESKPGLEPEPSSADEWRLSSSADANGNAQPSSLAAKGYRSVHPNLPSDKSQDATSSSAAQPEVIVVPLYLVNTDRGQEGTARPPTPLGPLGCVPTIPATASAASPLTFPTLDDFIPPHLQRWPHHSQPARASGSFAPISQTPPSFSPPPPLVPPAPEDLRRVSEPDLTGAVSSTDSSPLLNEVSSSLIGTDSQAFPSVSKPSSAYPSTTIVNPTIVLLQHNREQQKRLSSLSDPVSERRVGEQDSAPTQEKPTSPGKAIEKRAKDDSRRVVKSTQDLSDVSMDEVGIPLRNTERSKDWYKTMFKQIHKLNRDTPEENPYFPTYKFPELPEIQQTSEEDNPYTPTYQFPASTPSPKSEDDDSDLYSPRYSFSEDTKSPLSVPRSKSEMSYIDGEKVVKRSATLPLPARSSSLKSSSERNDWEPPDKKVDTRKYRAEPKSIYEYQPGKSSVLTNEKMSRDISPEEIDLKNEPWYKFFSELEFGKPPPKKIWDYTPGDCSILPREDRKTNLDKDLSLCQTELEADLEKMETLNKAPSANVPQSSAISPTPEISSETPGYIYSSNFHAVKRESDGAPGDLTSLENERQIYKSVLEGGDIPLQGLSGLKRPSSSASTKDSESPRHFIPADYLESTEEFIRRRHDDKEKLLADQRRLKREQEEADIAARRHTGVIPTHHQFITNERFGDLLNIDDTAKRKSGSEMRPARAKFDFKAQTLKELPLQKGDIVYIYKQIDQNWYEGEHHGRVGIFPRTYIELLPPAEKAQPKKLTPVQVLEYGEAIAKFNFNGDTQVEMSFRKGERITLLRQVDENWYEGRIPGTSRQGIFPITYVDVIKRPLVKNPVDYMDLPFSSSPSRSATASPQFSSHSKLITPAPSSLPHSRRALSPEMHAVTSEWISLTVGVPGRRSLALTPPLPPLPEASIYNTDHLALSPRASPSLSLSLPHLSWSDRPTPRSVASPLALPSPHKTYSLAPTSQASLHMNGDGGVHTPSSGIHQDSFLQLPLGSSDSVISQLSDAFSSQSKRQPWREESGQYERKAERGAGERGPGGPKISKKSCLKPSDVVRCLSTEQRLSDLNTPEESRPGKPLGSAFPGSEAEQTERHRGGEQAGRKAARRGGSQQPQAQQRRVTPDRSQTSQDLFSYQALYSYIPQNDDELELRDGDIVDVMEKCDDGWFVGTSRRTKQFGTFPGNYVKPLYL
B6: Peroxiredoxin-2 (PRDX2) (enzyme, UniProt P32119 1-198)
chain: MASGNARIGKPAPDFKATAVVDGAFKEVKLSDYKGKYVVLFFYPLDFTFVCPTEIIAFSNRAEDFRKLGCEVLGVSVDSQFTHLAWINTPRKEGGLGPLNIPLLADVTRRLSEDYGVLKTDEGIAYRGLFIIDGKGVLRQITVNDLPVGRSVDEALRLVQAFQYTDEHGEVCPAGWKPGSDTIKPNVDDSKEYFSKHN

Key:
[1] = biological target: V5-p53-miniTurbo-NES (human), P04637; assay: proximity labelling; BioID: V5-p53-miniTurbo-NES in HepG2 p53KO cells, 2 h growth or starvation medium with 250 µM biotin; lysis in 8 M urea, streptavidin beads, LC-MS/MS; background control V5-EGFP-miniTurbo-NES; settings: remark: other sources report otherwise
[2] = biological target: V5-p53-miniTurbo-NES (human) (UniProt P04637); assay: as above
[3] = biological target: p53 (endogenous) (human (endogenous in HepG2)) (UniProt P04637); assay: affinity purification with mass spectrometry; RIME as above, samples of cells kept 24 h in growth medium only
[4] = biological target: p53 (endogenous) (human (endogenous in HepG2)) (UniProt P04637); assay: affinity purification with mass spectrometry; RIME: HepG2 wt cells 24 h in growth or starvation medium, cross-linked with 1% formaldehyde, nuclei isolated, endogenous p53 precipitated with DO1 antibody, IgG2A isotype control, on-bead digest, LC-MS/MS

Row | binding [2] | binding [4] | also measured | Binder
1 |  |  | binding [1]: binds | B1
2 | binds |  |  | B2
3 | binds |  |  | B3
4 |  | binds | binding [3]: no binding (only cells in growth medium) | B4
5 |  | binds |  | B5
6 | binds |  |  | B6

— article PMC9151573
